# Assay results

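Luminescence from an EWS-FLI1 target-promoter (NR0B1) reporter, set against a CMV-promoter reporter, two days after silencing single genes in TC32 Ewing sarcoma cells. Each siRNA was applied at 20 nM. A z-score of the log NR0B1-over-CMV signal, less the median of siRNAs with the same seed; more negative means a stronger specific loss of the NR0B1 reporter.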

This is part of the screen; most of the strongest results are not listed here. Sequences are the guide (antisense) strand, without overhang.

strand,gene,seed-corrected z-score
AACUGUAAAGGGAUCACGC,GFPT1,0.5375
AAACUGAGAAUGUCUGCUC,IGSF9B,-0.3364
UACAGGAUCAUGUGCAUCU,KCNN4,0.2146
AACUUGAAACACAAACGCU,RPS28P4,0.4333
UACCCGGUCAUUCAAUAGC,FBXO16,-0.3509
UAGGGUUGAGAAAAGGUGG,OR52A5,-0.124
AUAUUUACAGUCAACAAUG,FLJ26850,1.109
AAAGUUCCACGCAUUUUUG,SNRPB2,0.6327
UCGCUGAUCAUACAGGUCG,HEATR9,-0.4671
UGUUGUUGCAGCACGCUCU,TM4SF20,0.7904
UACGCUUUCCGGAAUCUUG,LOXL2,-0.1787
UUUCUUUCUAGGGAGGUCC,TRERF1,0.2344
UUGUUUGGAAAGUACAUCC,MBTPS1,0.4594
AACAGAGUGAGCACAUUUC,SVOP,-0.008241
UCUUCAGUCAACACGUUCC,C5AR1,0.06425
UUUCAGAAGUGCUACUUCC,EFNB3,1.69
UUUAGUGUUAUGACUCCCG,HIBCH,0.1088
UACUUGUGAACAUCGAAGC,HOOK1,-0.5807
UUUGAUAGAAGUAACAAUC,CYLD,-0.599
AACUCAUCAUAGUCGAUGC,TNNC1,-0.05644
UCAAUUCUCUGCGAUGUGG,KIAA1671,0.1871
UUCGCAAUUCCUCAGCUCC,HSD17B2,-0.2219
AAUACUCCAACACUCCUCC,RHOBTB3,1.18
UAUGAGUACGCAGUUUUCC,PSMD11,-0.2889
UGUAAAUCUGUACUCAUCC,CLPX,0.04292
UCAGCUUAAAUAGAUGGUC,AARSD1,0.1955
UUAUAGACCUCAGCAAAGC,TGFBR2,-0.1604
AUUUGCUAGAUGUCCAUCC,MTERF2,0.04827
UUAGUAGUCUAUCAUCGCC,PCCA,1.051
UUUCCAUCUUCUAUCCUGG,PSME3,-0.9191
UAUAUUUGGAUUUUGGACG,ABCG5,0.0298
UAGACAAUGGGAUUCAUCA,OR51G2,-0.8783
UGACGAACAGGUUCUUCUC,SLC9A3,-0.05709
UAACUCCUAUUACUUCAUC,EIF4E3,0.7005
AAUGAUGUAGUAAUCGUGG,EFNB3,0.6803
AUUUUCUUCUCGCUAAUCC,CSNK1D,-1.347
UCCGGUUCCUCAAAGUCCU,TNK2,-0.1188
UUCUACCUCAUUAUGAGCC,ATAT1,-0.1797
AUGCGCAGAAAAACAGUCC,C6orf52,2.797
AAGCGAAUGAUUGAUAUCC,NOMO2,1.602
AUCUGUGCGAUCAUUUUGC,TRIML1,0.8075

2 of the entries, repeated:

| strand | gene | seed-corrected z-score |
|---|---|---|
| `UAACUCCUAUUACUUCAUC` | EIF4E3 | 0.7005 |
| `UUUCAGAAGUGCUACUUCC` | EFNB3 | 1.69 |

The results are deposited in PubChem (AID1159506; NCATS, 2015).